Reference: publication PMC6917717
Results are given in words; binding and its absence hold for the method and conditions named.

Target: YtfK, purified, biotinylated (E. coli) (UniProt P0ADE2)
Test: BLI; biotinylated YtfK (2.5 µM) on streptavidin biosensors; SpoT1-378 (5-80 µM) or RelA1-396 (40-120 µM) as analyte; BLItz, 25 °C; 50 mM Tris-HCl pH 8.0, 500 mM NaCl, 500 mM KCl, 2 mM β-mercaptoethanol, glycerol 2%, BSA 1 mg/ml; KD estimated from responses 10 s before the end of association, one-site fit; both purified

B1: RelA catalytic domains (RelA^1-396) (domain or fragment, UniProt P0AG20 1-396)
chain: MVAVRSAHINKAGEFDPEKWIASLGITSQKSCECLAETWAYCLQQTQGHPDASLLLWRGVEMVEILSTLSMDIDTLRAALLFPLADANVVSEDVLRESVGKSVVNLIHGVRDMAAIRQLKATHTDSVSSEQVDNVRRMLLAMVDDFRCVVIKLAERIAHLREVKDAPEDERVLAAKECTNIYAPLANRLGIGQLKWELEDYCFRYLHPTEYKRIAKLLHERRLDREHYIEEFVGHLRAEMKAEGVKAEVYGRPKHIYSIWRKMQKKNLAFDELFDVRAVRIVAERLQDCYAALGIVHTHYRHLPDEFDDYVANPKPNGYQSIHTVVLGPGGKTVEIQIRTKQMHEDAELGVAAHWKYKEGAAAGGARSGHEDRIAWLRKLIAWQEEMADSGEMLDE
  binding: no binding (tested: 40 to 120 µM)
